Assay results from publication PMC10154356.
No constants are given. Whether binding was seen depends on the method and setting. For some assays here: In cells and extracts the contact can be indirect. Some binding calls cover weakened binding; strength is not graded here.

Amino acid sequences for entries named in this document (tags omitted).
UniProt Q13887: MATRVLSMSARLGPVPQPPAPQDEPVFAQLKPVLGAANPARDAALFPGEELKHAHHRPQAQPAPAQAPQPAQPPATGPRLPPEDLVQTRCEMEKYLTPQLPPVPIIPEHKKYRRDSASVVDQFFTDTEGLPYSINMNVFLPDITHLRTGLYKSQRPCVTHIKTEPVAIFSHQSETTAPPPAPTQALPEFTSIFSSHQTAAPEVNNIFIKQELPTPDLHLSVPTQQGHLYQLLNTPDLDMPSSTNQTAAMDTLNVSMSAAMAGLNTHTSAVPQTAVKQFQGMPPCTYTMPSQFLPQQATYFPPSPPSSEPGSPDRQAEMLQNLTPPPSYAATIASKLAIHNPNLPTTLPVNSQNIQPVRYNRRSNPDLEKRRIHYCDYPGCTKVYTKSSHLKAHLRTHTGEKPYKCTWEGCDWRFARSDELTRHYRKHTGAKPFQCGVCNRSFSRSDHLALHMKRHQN
UniProt Q92769: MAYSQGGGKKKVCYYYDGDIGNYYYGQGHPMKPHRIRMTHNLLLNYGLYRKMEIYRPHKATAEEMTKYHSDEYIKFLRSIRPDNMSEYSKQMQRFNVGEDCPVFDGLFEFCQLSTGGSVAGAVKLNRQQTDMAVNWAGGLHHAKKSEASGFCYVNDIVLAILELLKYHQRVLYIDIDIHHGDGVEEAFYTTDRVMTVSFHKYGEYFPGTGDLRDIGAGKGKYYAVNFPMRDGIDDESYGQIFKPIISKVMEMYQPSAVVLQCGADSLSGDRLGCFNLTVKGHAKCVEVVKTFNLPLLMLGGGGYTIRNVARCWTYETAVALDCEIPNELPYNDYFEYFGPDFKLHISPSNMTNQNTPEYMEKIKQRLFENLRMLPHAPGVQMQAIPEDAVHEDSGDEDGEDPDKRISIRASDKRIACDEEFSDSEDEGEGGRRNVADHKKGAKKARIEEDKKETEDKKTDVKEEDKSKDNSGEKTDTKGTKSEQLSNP

Tests used:
[1] = biological target: KLF5 (human (endogenous in primary human esophageal keratinocytes)) (UniProt Q13887); experiment: co-IP; lysates of EPC2 primary human esophageal keratinocytes (1% NP-40, 137 mM NaCl lysis buffer), 4 ug antibody overnight at 4 C, protein A/G magnetic beads, immunoblot; IgG as negative control; with and without KLF5 knock-down, SIN3A knock-down or UV irradiation
[2] = biological target: KLF5 (human (endogenous in primary human esophageal keratinocytes)) (UniProt Q13887); experiment: ChIP-reChIP; formaldehyde cross-linked cells; first ChIP with anti-KLF5, second ChIP with anti-SIN3A or anti-HDAC2; on the TP53 promoter

binding [1]: binds
binding [2]: binds
Substance: HDAC2 (from UniProt Q92769 1-488)
